1 substance from publication PMC6760448, “The DRS–AIMP2–EPRS subcomplex acts as a pivot in the multi-tRNA synthetase complex” (IUCrJ, 2019) can be followed below.

Sequences of proteins named here, by UniProt entry; tags and fusion partners are left off. A change or cut given only in a name is not applied to a line headed by its entry.
UniProt P56192: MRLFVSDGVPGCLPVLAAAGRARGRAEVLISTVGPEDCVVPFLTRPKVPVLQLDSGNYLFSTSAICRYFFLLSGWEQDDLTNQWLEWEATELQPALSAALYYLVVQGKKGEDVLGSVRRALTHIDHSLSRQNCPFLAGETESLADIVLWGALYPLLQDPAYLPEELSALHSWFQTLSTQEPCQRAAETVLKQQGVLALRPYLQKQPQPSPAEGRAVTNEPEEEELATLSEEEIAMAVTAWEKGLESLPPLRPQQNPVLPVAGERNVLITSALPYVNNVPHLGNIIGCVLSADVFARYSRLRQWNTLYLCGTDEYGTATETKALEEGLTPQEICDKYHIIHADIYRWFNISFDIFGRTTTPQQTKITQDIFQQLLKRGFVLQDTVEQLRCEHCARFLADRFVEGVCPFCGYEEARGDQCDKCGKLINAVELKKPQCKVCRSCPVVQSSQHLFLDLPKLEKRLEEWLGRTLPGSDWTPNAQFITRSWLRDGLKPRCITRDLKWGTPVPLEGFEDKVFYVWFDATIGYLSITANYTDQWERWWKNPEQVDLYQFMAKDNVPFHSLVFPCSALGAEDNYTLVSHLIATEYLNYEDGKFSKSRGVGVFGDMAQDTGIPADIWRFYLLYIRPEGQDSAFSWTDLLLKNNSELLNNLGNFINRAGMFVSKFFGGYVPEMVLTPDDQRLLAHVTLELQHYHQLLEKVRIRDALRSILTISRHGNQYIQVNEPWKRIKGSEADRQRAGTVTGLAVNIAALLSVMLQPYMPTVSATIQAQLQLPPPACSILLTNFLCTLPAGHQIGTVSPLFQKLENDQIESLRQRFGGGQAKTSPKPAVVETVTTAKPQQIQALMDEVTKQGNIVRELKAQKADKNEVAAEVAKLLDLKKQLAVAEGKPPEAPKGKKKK

Results are given in words; binding and its absence hold for the method and conditions named. A result given as binding can be weak or reduced; the word gives no strength.

For the experiment, the target named is T1, aminoacyl-tRNA synthetase complex-interacting multifunctional protein 3 (UniProt O43324).
T1 sequence: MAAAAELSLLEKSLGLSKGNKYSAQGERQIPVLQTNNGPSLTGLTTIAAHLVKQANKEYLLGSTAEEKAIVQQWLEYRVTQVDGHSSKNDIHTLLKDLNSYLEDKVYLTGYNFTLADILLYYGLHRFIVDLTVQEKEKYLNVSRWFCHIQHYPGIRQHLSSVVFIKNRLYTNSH
Briefly: SEC; separately transformed strains pooled in one culture, proteins met on cell disruption by sonication; His6 affinity (HiTrap Chelating HP), then HiLoad 16/600 Superdex 200 pg in 50 mM HEPES–NaOH pH 8.0, 200 mM NaCl, 5 mM DTT, 1% glycerol; SDS–PAGE of the highest peak.

Consider “GST domain of methionyl-tRNA synthetase (from UniProt P56192) (domain or fragment)”, for which the binding result is “binds”.
